Data as given in the supplement of paper PMC5949888.
± gives the standard deviation of the averaged measurements. Most values lie at the floor of the assay. Slopes are relative: functional sequences can read slightly below zero.

Each substance was assayed on Saccharomyces cerevisiae PS128 hsf1 delta, HSF1(1-493) fusion (assay: growth estimate (transactivation domain function in HSF1 fusion, heat-shock survival) (a.u. (slope of normalised read count over time)); higher = stronger growth at 37°C, i.e. more transactivation activity). Details: library: random library.
Procedure: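 Random 60-nt DNA library encoding peptides of up to 20 aa, fused to the C-terminus of yeast HSF1 residues 1-493 (C-terminal TAD deleted) and expressed from the native HSF1 promoter on a CEN plasmid in hsf1-deleted S. cerevisiae PS128. Cells were selected at 37°C on -trp 5-FOA plates for 0, 2, 4, 6 and 8 days and amplicons were sequenced. Growth estimate is the slope of a robust linear fit of total-sum-normalised read counts (normalised to the first time point) over time, using at least 2 replicates. Sequences are classed functional (TAD activity) above a threshold of -0.13, set from stop-codon control sequences.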

Substance | growth estimate
ELPDYVLLRPIV | < -0.25
VMGLEVIWRP | < -0.25
AHFGRFITSVPWIV | < -0.25
HANRSRT | < -0.25
KILP | < -0.25
FGLVWCPGKVTSKERVRLFM | < -0.25
ITVSTASRYNPADKGARRLV | < -0.25
YGGHSTN | < -0.25
LVSLPCAGILRPYT | < -0.25
VSVPFPIV | < -0.25
LLPVFVFFGKGWLDRVGISS | < -0.25
YFR | < -0.25
VGVRSQYAGAVRLGSAGFEF | < -0.25
VAPLQRTQAHQQRQDCWTGR | < -0.25
HAKVPEGTLWACVGGELIYG | < -0.25
PLHRGGMSLRRN | < -0.25
PGSCHTQIWWRFTYIAAMSV | < -0.25
NSPKCTSRLEQAQRWNACLQ | < -0.25
LSQGSGTTASFAWL | < -0.25
GDRTVLEWWTASSPVITGSA | < -0.25
MGSLGVQSGRGSHFRRHADG | < -0.25
LSNDHTENRLL | < -0.25
TYGGRFSRQQGRDVNGCQDH | < -0.25
IRKIEQGLLRRSDTTSFRTG | < -0.25

Substance | growth estimate
GCVGQIFGSPCGN | < -0.25
SFQSHGFLCSRHRTRTHGIR | < -0.25
PEHFVSRTLSPLALAFKTRC | < -0.25
KGDGPRTGQVLRPAPGESSE | < -0.25
LNCQRALWRER | < -0.25
ARDWEEFSRHRKFGSPSFLH | < -0.25
VETGSSIFNRAGAKCPSLRY | < -0.25
TQRVSTVL | < -0.25
HQIQGLHHSYAFTPSLPGAQ | < -0.25
HSALRTGWFIQKMEAVIYIA | < -0.25
RSVQPSRVSLNDMPKSIREP | -0.25
DKLKQCCRGIVHGGYRPEAP | < -0.25
PMEELDAV | < -0.25
RRRRRLSYAPKSLGRCGQGR | < -0.25
ITFDEGALLYSSITERQAIH | < -0.25
DYV | < -0.25
VRLKARLWAYKEGQSIVGPA | < -0.25
NWE | -0.0897
SRFYRS | < -0.25
KNLELSPDYCRQACTHFCSC | < -0.25
QAEFIVVTEEGSLGGRGTGA | < -0.25
GYSRQSMCSEMDS | < -0.25
AGRPAL | < -0.25
ISGSTPCCWVSCNSCGVIGA | < -0.25

Substance | growth estimate
RWSLLHPSLQPAAPWTRSVG | < -0.25
GIPASQTPTRNKSRLNKSAA | < -0.25
RVDVLMSK | < -0.25
LKCLESRPCISGGRVLPMVQ | < -0.25
LERCLKEAVMRSQKS | < -0.25
RDRSHYGAETTSRVTSLDAV | < -0.25
AKYPGGRSDPGLLPAWSFAF | -0.237
MITQWHSRGPL | < -0.25
STRAGTVPVGYTATVQSQGT | < -0.25
TFEHLQQAP | < -0.25
DHDGRYTSHVRAIIERY | < -0.25
PYG | < -0.25
RSVSVGSDLFCGVRPTSVFA | < -0.25
KQSRSRVRRGTSRGRLHREG | < -0.25
VLVDPQKSFQSLRCVTHISW | < -0.25
YTDSGHQLISLGARGCELTI | < -0.25
KGWYWKSREATEWARDSHRR | < -0.25
NAQEVNHAVFYGMPSAHRNG | < -0.25
HRPLCTDMLRAAQTTLHVCL | < -0.25
VPTGRTAHTIRLTPERRPDE | < -0.25
TTPSRF | < -0.25
IECQWYFKLHSGVGRETLYW | < -0.25
IRGKVSTYWAQSPSADSTPA | < -0.25
SADSCALVDPFSMY | < -0.25

Five records drawn at random from the list so far, as already listed:
Substance | growth estimate
IECQWYFKLHSGVGRETLYW | < -0.25
RSVSVGSDLFCGVRPTSVFA | < -0.25
LSNDHTENRLL | < -0.25
NWE | -0.0897
AKYPGGRSDPGLLPAWSFAF | -0.237

(further entries)

Substance | growth estimate
AEDH | < -0.25
TQIINLVPPIGLVTRN | < -0.25
WLSWWEV | -0.176
LSRNRVKLGSKTKKVHVTWY | -0.243
SVLSVRSVSRLTIFGEPYVH | < -0.25
GSKIVFGRDKTVGKKSELLR | < -0.25
GIQAGGTRKECSKYEHACYN | < -0.25
RDESW | < -0.25
RWF | < -0.25
FVHSYL | < -0.25
ARVPFLSGAQNDGPTPKASL | < -0.25
LGD | -0.247 ± 0.0037
VCTIGLSRKWELRIRECQPC | < -0.25
PHKTETKISQIVIARYHTII | < -0.25
RRNLNLDPPSSLASSHGRMI | < -0.25
PVVSSRRTQSLHHSDGCCED | < -0.25
GSDSFIAPGGSPNEHYIA | -0.231
TYNDVMR | < -0.25
WLHETLVRAPAVPTLTRGPS | < -0.25
VIWVPGFG | < -0.25
ASESFRVQGRKAGRHANSTP | < -0.25
YRGIEGITMDVLRPQVFWAK | < -0.25
FDDAGEVK | < -0.25
ELDKVRVLIL | < -0.25

Looked up above.
Entry for LGD under growth estimate: -0.247 ± 0.0037
Entry for VCTIGLSRKWELRIRECQPC under growth estimate: < -0.25
Entry for YRGIEGITMDVLRPQVFWAK under growth estimate: < -0.25

Additional records.

Substance | growth estimate
DTNIVC | -0.243
ASSQASFGVIWPPAILFEEH | < -0.25
LTDR | < -0.25
QSTLVCRRVRRSTGTEGIST | < -0.25
QWGADAVRLSPQKIELVSKP | < -0.25
AGAKCHKRLNGGYTAWGTRS | < -0.25
EQPIFPPRPVCMNSGFITHH | < -0.25
PSQGNLATGVANDGSAPRGH | < -0.25
MYNWDQLL | 0.855
ICLGLPLVKNNNHKRRL | < -0.25
RVDTATHKVIGALVLLEASI | < -0.25
SNKLNVDCLKFSQATTQSGP | < -0.25
IGGGQASPYSVCKSHVLMVT | < -0.25
VMKTQVPFVRGFVV | < -0.25
PLPC | < -0.25
EFGQLSPKGSNKNWWMDRKQ | -0.237
DVQLLGSGYCRVHIFNTHPT | < -0.25
YVGMVKPQADSKPVVHLSTS | < -0.25
LPGWKPPPILRTALPHISRG | < -0.25
PETPLVRRFRRRCCGGDAEC | < -0.25
VATLRSRGIGGCWKLRL | < -0.25
TRA | -0.248 ± 0.0039
LRQFKCDHCASARTVRATAG | < -0.25
TRWVRQSHLMGQIGLRCT | < -0.25

Substance | growth estimate
CVGLREAWAHGRPSVGVVA | < -0.25
GGYSCLNTRYWD | < -0.25
ATDAPWSGSYLRAERAPS | < -0.25
CIGPVLVCTVSNTR | < -0.25
LYSRADIC | < -0.25
KSLFVVLPAQAGDCEISERS | < -0.25
VWGLRAGAFAVQVTDVNGPD | < -0.25
LPDRMVRGV | < -0.25
APKLLSRYVLSMSYSRRWPR | < -0.25
LVIQREQ | < -0.25
VLLNNITR | < -0.25
NTGELEIECDRILYPAISVQ | < -0.25
AWIRMVRALGPQGSMGRVPP | < -0.25
HTDCLCQKPGVSTYVDAGIC | < -0.25
DGGRIEKFPTL | < -0.25
AVPCSGYWRCCSTSHRNSLV | < -0.25
YWS | < -0.25
SMHAAGAKRKRRCVMVFHGH | < -0.25
LALNFIFAGKRLAIRGLQTV | < -0.25
SGAATPSIQVGAGKKTIDSA | < -0.25
RNQGAFESQFTSHSR | < -0.25
